One may read the AC50 as the concentration at which the activity in the assay is half-maximal. Read a low AC50 as activity at low concentration.

A short description of this experiment: qHTS Assay for Lipid Storage Modulators in Drosophila S3 Cells.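 As to cell number change: cells counted by Cell Tracker Red CMTPX staining in the red channel.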 Conditions: BODIPY lipid droplet fluorescence, 18-24 h; for cell number change: measured here: cell count max response, cells fed with added oleic acid. The procedure, abridged: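 Laser-scanning cytometry quantifies lipid droplet accumulation (500–530 nm total intensity; droplet/cell object ratio) in oleic acid-fed (400 uM added) Drosophila S3 cells treated with a concentration series. 20 uM Triacsin C defined 100% inhibition.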
In general terms: In qHTS, concentration-response curves come from the screen itself.

Where [1] appears, read: measured here: cell number channel AC50, cells fed with added oleic acid.
The mark [2] stands for this setting: measured here: lipid fluorescence (Fed channel) AC50, cells fed with added oleic acid.

Structures are written as SMILES. Some of the results follow. The main result of the screen is listed elsewhere. These columns were measured beside it and carry no call. Most of these compounds were active or inconclusive in the main read-out, so they are no random draw. Words in brackets tell the shape of the fitted curve; partial curves, single points and poor fits give uncertain potencies.

As for `c1ccc(C(c2ccccc2)N2CCN(Cc3nnnn3C3CCCC3)CC2)cc1`, the cell number change stood at 53.9%. Moreover, the half-maximal activity concentration (AC50) under setting [1] is 8.2 µM [rising, partial curve]. Turning to `Clc1ccc(-c2nnc(C3CCCCC3)o2)cc1`, the cell number change is -7.28%. For `O=C(CNCc1ccc(F)cc1)Nc1ccccc1-c1ccccc1`, the cell number change is -0.718%. The AC50 under setting [1] was 6.51 µM [rising, single point]. Further, under setting [2], the concentration at half-maximal activity (AC50) was 6.51 µM [rising, partial curve, poor fit]. On to `COC(=O)c1c(C)[nH]c(C(=O)COc2ccc3ccc(=O)oc3c2)c1C`, for which the cell number change is -43.4%. In addition, the half-maximal activity concentration (AC50) under setting [1] is 29.1 µM [falling, single point]. Further, the concentration at half-maximal activity (AC50) under setting [2] is 29.1 µM [falling, single point]. For `O=C(NCc1cccs1)c1cc(-c2ccccc2)on1`, the cell number change worked out at 17%. Consider `COc1ccc2c([N+](=O)[O-])c(N3CCCC3)[nH]c2c1`, for which the cell number change was determined as 7.04%. Further, the AC50 under setting [2] is 29.1 µM [rising, single point].

As to `O=C(Nc1ccc(Cl)cc1)N(CCCN1CCOCC1)Cc1cccs1`, the cell number change was found to be 3.13%. Also, under setting [2], the AC50 was 7.31 µM [rising, partial curve, poor fit]. For `COc1cccc(/C=N/c2nc3ccccc3n2C)c1O`, the cell number change is 12.9%. As for `CCCC/C(C)=N\NC(=O)CNS(=O)(=O)c1ccc([N+](=O)[O-])cc1`, the cell number change is -37.2%. Moreover, under setting [1], the AC50 is 0.82 µM [falling, full curve, poor fit]. Further, the AC50 under setting [2] was 6.51 µM [falling, single point]. Regarding `CCOc1ccccc1/C=C/c1cc(C(=O)O)c2ccccc2n1`, the cell number change was determined as 21.8%. With `COc1ccc(N2CCN(Cc3cc(=O)oc4c3ccc3ccccc34)CC2)cc1`, the cell number change was -17.2%.

`COc1ccc(Nc2cc(C)nc3c(C)cccc23)cc1OC`: the cell number change was -13.5%. On the same count and under the same terms, then `CCOC(=O)c1cccc(NC(=O)CCc2nnc3ccc(N4CCOCC4)nn23)c1`, with -18.4%.

Take `CCOC(=O)C1CCCN(C2CC(=O)N(c3ccccc3)C2=O)C1` (configuration not stated): the cell number change is -31.8%. `COc1ccc2nc(-c3ccco3)c(-c3ccco3)nc2c1`: under setting [2], the AC50 is 0.13 µM [falling, full curve, poor fit]. For `Cc1ccc2sc(NNC(=O)c3cc(=O)c4ccccc4o3)nc2c1C`, the concentration at half-maximal activity (AC50) under setting [2] is 3.66 µM [falling, partial curve, poor fit].

As to `c1ccc2c(CCNc3ncnc4nc[nH]c34)c[nH]c2c1`, the cell number change was -26.4%. For the same molecule, the AC50 under setting [2] is 16.4 µM [falling, single point]. Take `Cc1cc(C)cc(OCCNC(=O)C(C)N2C(=O)c3ccccc3C2=O)c1` (configuration not stated): the cell number change turned out to be 16.2%. Moreover, the concentration at half-maximal activity (AC50) under setting [2] is 6.51 µM [falling, single point].

With `O=C(CN(Cc1ccc(F)cc1)C(=O)CCC(=O)Nc1ccccn1)NCc1ccc(F)cc1`, the cell number change came to 27.1%. In addition, the concentration at half-maximal activity (AC50) under setting [2] is 0.116 µM [falling, single point]. Regarding `O=C(Nc1cc(=O)[nH]c2ncnn12)c1ccccc1F`, the cell number change was -45.6%. The AC50 under setting [1] is 4.11 µM [falling, single point]. Further, the half-maximal activity concentration (AC50) under setting [2] was 4.11 µM [falling, single point].

In the case of `COC(=O)c1noc(-c2ccc(OC)cc2)n1`, the cell number change was -3.99%. Besides, under setting [2], the half-maximal activity concentration (AC50) is 0.00461 µM [falling, full curve, poor fit]. `Cc1c(OC(C)C(=O)NCC2CCC(C(=O)O)CC2)ccc2c(-c3ccccc3)cc(=O)oc12` (configuration not stated): the cell number change is -12.9%. For the same molecule, the concentration at half-maximal activity (AC50) under setting [2] was 4.11 µM [falling, full curve].

Take `COc1ccccc1C1CCN(c2cc(O)ccc2[N+](=O)[O-])CC1`: the cell number change was -58.5%. Besides, under setting [1], the AC50 was 16.4 µM [falling, single point]. For the same molecule, under setting [2], the half-maximal activity concentration (AC50) was 20.6 µM [falling, partial curve]. `CCCCCOC(=O)Nc1nnc(CCC)s1`: the cell number change was -24.5%. Besides, the AC50 under setting [1] was 4.11 µM [falling, full curve, poor fit]. The AC50 under setting [2] is 3.26 µM [falling, single point]. As to `COc1cc2c(cc1OC)C1=NC(=O)CN1C(SCc1ccccc1C)=N2`, the cell number change was -13.5%. In the case of `CCn1c(C)c(C)c2cc(C(=O)NCCCN3CCOCC3)ccc21`, the cell number change is -5.32%. `O=C(NCC1CCCO1)c1cccc(S(=O)(=O)N2CCCCC2)c1` (configuration not stated): the cell number change was found to be 14.4%. Under setting [2], the AC50 was 29.1 µM [rising, partial curve, poor fit]. As to `CC(C)(O)C#Cc1ccc(C(=O)Nc2ccc3c(c2)OCO3)s1`, the cell number change amounted to 1.22%. Also, the concentration at half-maximal activity (AC50) under setting [2] is 0.461 µM [rising, full curve, poor fit]. Turning to `CN1c2ccc(C=O)c3c(C=O)ccc(c23)N(C)C1(C)C`, the cell number change is -70%. Further, under setting [1], the AC50 was 29.1 µM [falling, single point]. The AC50 under setting [2] was 23.1 µM [falling, partial curve]. In the case of `CC(C)(CSc1ncccn1)NS(=O)(=O)c1ccccc1`, the cell number change was 17.9%. Moreover, the AC50 under setting [2] was 0.0259 µM [rising, full curve, poor fit]. As for `O=C(O)c1ccc(NS(=O)(=O)c2ccc3c(c2)OCCO3)cc1`, the cell number change came to 2.87%. Further, the half-maximal activity concentration (AC50) under setting [2] is 16.4 µM [falling, partial curve, poor fit].

Consider `COc1ccc(C2(C)NC(=O)N(CC(=O)Nc3ccc(-c4nc5ccc(C)cc5s4)cc3)C2=O)cc1` (configuration not stated), for which the cell number change is -45.7%. Also, the half-maximal activity concentration (AC50) under setting [2] was 0.316 µM [falling, full curve, poor fit]. For the molecule `Cc1ccc(-c2cc(C(=O)Nc3ccc(S(=O)(=O)N4CC(C)OC(C)C4)cc3)[nH]n2)c(O)c1` (configuration not stated), the cell number change was -18%. Further, under setting [2], the AC50 is 29.1 µM [falling, single point]. `COc1ccc(NC(=O)CSc2cc(C)ccc2C)cn1`: the cell number change is -2.81%. For `CCCc1cc(=O)[nH]c(SCC(N)=O)n1`, the cell number change is -21.9%. For the same molecule, under setting [2], the AC50 was 7.31 µM [falling, partial curve]. With `O=S(=O)(NCc1ccccc1)NCc1ccc(Cl)cc1Cl`, the cell number change was -3.6%. The AC50 under setting [1] is 0.291 µM [rising, partial curve, poor fit]. The half-maximal activity concentration (AC50) under setting [2] was 16.4 µM [falling, single point].

For the molecule `O=C(NNC(=O)c1ccccc1F)c1ccc(-c2ccc(Cl)cc2)o1`, the cell number change amounted to 7.07%. Moreover, under setting [1], the AC50 is 0.731 µM [falling, single point].

Consider `COc1ccc2c(c1)SC1=NCCS(=O)(=O)N12`, for which the cell number change is 5.3%. As to `Cc1sc2nc(-c3cccnc3)nc(Cl)c2c1-c1ccccc1`, the cell number change came to 30.6%. Also, the concentration at half-maximal activity (AC50) under setting [1] was 25.9 µM [rising, single point]. The half-maximal activity concentration (AC50) under setting [2] is 16.4 µM [rising, single point]. On to `N#Cc1ccc(-c2csc(NNC(=O)c3ccccc3)n2)cc1`, for which the cell number change was 0.638%.

On to `OCCNNC(=S)NC1CC2C=CC1C2` (configuration not stated), for which the cell number change is 8.72%. For the same molecule, the half-maximal activity concentration (AC50) under setting [1] is 5.17 µM [falling, single point]. In addition, the AC50 under setting [2] was 6.51 µM [falling, single point].

The values above are taken from PubChem BioAssay AID2685 (National Center for Advancing Translational Sciences (NCATS), 2010).
